# Screening data

Source: PubChem BioAssay AID504749 (NCATS, 2011).

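Malaria parasite (P. falciparum) lines kept in red blood cells; parasite DNA is measured by SYBR Green fluorescence after lysis, 72 h after compound addition. Each compound was titrated across a series from about 0.000037 to 29 µM. The number is the fitted AC50, the concentration giving a half-maximal change in signal; a lower value means higher potency, whether the curve shows a decrease or an increase. Calls follow the curve class and fit quality: every row here is inconclusive, covering signal-raising curves and weak, poorly fitted, partial or highest-dose-only inhibition curves.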

Values are in nM. All entries here are filed as inconclusive. Only part of the assay is shown, chiefly results filed as inconclusive. Potencies fitted to partial, single-point or poorly fitting curves are rough.

| SMILES | setting | fitted potency (nM) | curve as filed |
|---|---|---|---|
| `CN1CCC(=C2c3ccccc3C=Cc3ccccc32)CC1` | ICS | 3548 | inhibitor, single point |
| `CN1CCC(=C2c3ccccc3C=Cc3ccccc32)CC1` | CP268 | 1694 | inhibitor, partial curve, poor fit |
| `CN1CCC(=C2c3ccccc3C=Cc3ccccc32)CC1` | CP335 | 4256 | inhibitor, single point |
| `CN1CCC(=C2c3ccccc3C=Cc3ccccc32)CC1` | AS120 | 3548 | inhibitor, single point |
| `CCN(CC)CCOc1ccc2c(c1)C(=O)c1cc(OCCN(CC)CC)ccc1-2` | CP238 | 11220 | inhibitor, single point |
| `CCN(CC)CCOc1ccc2c(c1)C(=O)c1cc(OCCN(CC)CC)ccc1-2` | CP217 | 11220 | inhibitor, single point |
| `CCN(CC)CCOc1ccc2c(c1)C(=O)c1cc(OCCN(CC)CC)ccc1-2` | CP305 | 13459 | inhibitor, single point |
| `CCN(CC)CCOc1ccc2c(c1)C(=O)c1cc(OCCN(CC)CC)ccc1-2` | TAB165 | 10000 | inhibitor, single point |
| `CCN(CC)CCOc1ccc2c(c1)C(=O)c1cc(OCCN(CC)CC)ccc1-2` | CP260 | 10000 | inhibitor, single point |
| `CCN(CC)CCOc1ccc2c(c1)C(=O)c1cc(OCCN(CC)CC)ccc1-2` | CP191 | 10000 | inhibitor, single point |
| `CCN(CC)CCOc1ccc2c(c1)C(=O)c1cc(OCCN(CC)CC)ccc1-2` | DIV30 | 15101 | inhibitor, single point |
| `CCN(CC)CCOc1ccc2c(c1)C(=O)c1cc(OCCN(CC)CC)ccc1-2` | CP335 | 15101 | inhibitor, single point |
| `CCN(CC)CCOc1ccc2c(c1)C(=O)c1cc(OCCN(CC)CC)ccc1-2` | CP194 | 16944 | inhibitor, single point |
| `CCN(CC)CCOc1ccc2c(c1)C(=O)c1cc(OCCN(CC)CC)ccc1-2` | CP211 | 6746 | inhibitor, partial curve, poor fit |
| `CCN(CC)CCOc1ccc2c(c1)C(=O)c1cc(OCCN(CC)CC)ccc1-2` | CP291 | 19011 | inhibitor, single point |
| `CCN(CC)CCOc1ccc2c(c1)C(=O)c1cc(OCCN(CC)CC)ccc1-2` | CP297 | 19011 | inhibitor, single point |
| `CCN(CC)CCOc1ccc2c(c1)C(=O)c1cc(OCCN(CC)CC)ccc1-2` | CP265 | 11220 | inhibitor, single point |
| `CCN(CC)CCOc1ccc2c(c1)C(=O)c1cc(OCCN(CC)CC)ccc1-2` | CP215 | 19011 | inhibitor, single point |
| `CCN(CC)CCOc1ccc2c(c1)C(=O)c1cc(OCCN(CC)CC)ccc1-2` | ATS95 | 11220 | inhibitor, single point |
| `CCN(CC)CCOc1ccc2c(c1)C(=O)c1cc(OCCN(CC)CC)ccc1-2` | CP269 | 19011 | inhibitor, single point |
| `CCN(CC)CCOc1ccc2c(c1)C(=O)c1cc(OCCN(CC)CC)ccc1-2` | CP192 | 19011 | inhibitor, single point |
| `CCN(CC)CCOc1ccc2c(c1)C(=O)c1cc(OCCN(CC)CC)ccc1-2` | PC49 | 11220 | inhibitor, single point |
| `CCN(CC)CCOc1ccc2c(c1)C(=O)c1cc(OCCN(CC)CC)ccc1-2` | CP203 | 13459 | inhibitor, single point |
| `CCN(CC)CCOc1ccc2c(c1)C(=O)c1cc(OCCN(CC)CC)ccc1-2` | N140 | 10000 | inhibitor, single point |
| `CCN(CC)CCOc1ccc2c(c1)C(=O)c1cc(OCCN(CC)CC)ccc1-2` | CP201 | 10690 | inhibitor, partial curve, poor fit |
| `CCN(CC)CCOc1ccc2c(c1)C(=O)c1cc(OCCN(CC)CC)ccc1-2` | AS120 | 11220 | inhibitor, single point |
| `CCN(CC)CCOc1ccc2c(c1)C(=O)c1cc(OCCN(CC)CC)ccc1-2` | CP325 | 19011 | inhibitor, single point |
| `CCN(CC)CCOc1ccc2c(c1)C(=O)c1cc(OCCN(CC)CC)ccc1-2` | P94_40 | 11220 | inhibitor, single point |
| `CCN(CC)CCOc1ccc2c(c1)C(=O)c1cc(OCCN(CC)CC)ccc1-2` | CP250 | 17782 | inhibitor, single point |
| `CCN(CC)CCOc1ccc2c(c1)C(=O)c1cc(OCCN(CC)CC)ccc1-2` | AA1029 | 11220 | inhibitor, single point |

3 of the entries, repeated:

CCN(CC)CCOc1ccc2c(c1)C(=O)c1cc(OCCN(CC)CC)ccc1-2 [CP325] read fitted potency 19011 nM (inhibitor, single point).
CCN(CC)CCOc1ccc2c(c1)C(=O)c1cc(OCCN(CC)CC)ccc1-2 [CP297] read fitted potency 19011 nM (inhibitor, single point).
CCN(CC)CCOc1ccc2c(c1)C(=O)c1cc(OCCN(CC)CC)ccc1-2 [CP194] read fitted potency 16944 nM (inhibitor, single point).